Experimental data: PMC9584950
These are yes or no findings as the source states them, for the method shown. Binding seen in cells or lysates may run through a third protein. Some entries that bind do so weakly or less than the wild type.

The chains behind the UniProt entries cited, without tags or fusion partners. Residues count along the entry.
UniProt P40763: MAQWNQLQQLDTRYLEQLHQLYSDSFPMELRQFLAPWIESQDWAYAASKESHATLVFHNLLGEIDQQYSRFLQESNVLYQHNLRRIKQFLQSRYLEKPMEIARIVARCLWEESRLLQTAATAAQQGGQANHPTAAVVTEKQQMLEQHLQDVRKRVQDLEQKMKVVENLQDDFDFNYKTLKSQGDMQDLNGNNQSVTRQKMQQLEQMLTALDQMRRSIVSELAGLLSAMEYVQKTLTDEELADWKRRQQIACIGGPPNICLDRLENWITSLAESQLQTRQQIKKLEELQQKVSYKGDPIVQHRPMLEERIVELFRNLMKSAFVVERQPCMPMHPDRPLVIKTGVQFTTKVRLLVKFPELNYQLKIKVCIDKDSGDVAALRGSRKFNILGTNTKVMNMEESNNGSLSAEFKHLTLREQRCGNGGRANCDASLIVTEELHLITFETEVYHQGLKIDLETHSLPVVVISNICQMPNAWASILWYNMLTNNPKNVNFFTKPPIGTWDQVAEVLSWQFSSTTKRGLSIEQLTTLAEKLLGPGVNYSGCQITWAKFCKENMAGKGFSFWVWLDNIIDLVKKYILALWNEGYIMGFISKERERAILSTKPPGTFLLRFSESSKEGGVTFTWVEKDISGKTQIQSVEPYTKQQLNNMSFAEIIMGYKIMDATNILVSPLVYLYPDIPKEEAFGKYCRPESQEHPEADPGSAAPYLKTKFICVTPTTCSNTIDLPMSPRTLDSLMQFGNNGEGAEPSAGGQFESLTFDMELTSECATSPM
UniProt P23284, residues 34-216: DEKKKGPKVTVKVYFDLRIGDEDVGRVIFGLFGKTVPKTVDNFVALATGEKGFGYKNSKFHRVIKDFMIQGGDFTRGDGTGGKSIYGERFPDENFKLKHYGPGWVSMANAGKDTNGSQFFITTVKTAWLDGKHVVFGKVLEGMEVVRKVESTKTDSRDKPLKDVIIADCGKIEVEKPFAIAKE
UniProt O14543: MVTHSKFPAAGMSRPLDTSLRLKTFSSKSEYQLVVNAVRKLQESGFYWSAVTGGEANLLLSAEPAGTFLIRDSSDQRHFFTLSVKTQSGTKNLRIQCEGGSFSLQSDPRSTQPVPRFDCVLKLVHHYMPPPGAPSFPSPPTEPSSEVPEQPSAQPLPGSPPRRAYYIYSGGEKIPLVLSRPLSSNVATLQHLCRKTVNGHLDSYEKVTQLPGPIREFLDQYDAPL

What was measured:
[1] = target: Signal Transducer and Activator of Transcription 3 (human (endogenous in Caco-2)) (UniProt P40763); assay: co-IP; beads coated with STAT3 antibody or IgG; lysates of IL-6-treated Caco-2 cells with or without PVT1 knockdown; blot for CypB and SOCS3
[2] = target: Cyclophilin B (human (endogenous in Caco-2)) (UniProt P23284); assay: co-IP; beads coated with CypB antibody or IgG; lysates of Caco-2 cells with or without IL-6; blot for STAT3 and pSTAT3 (Tyr705)

binding [1]	binding [2]	Substance
binds		Cyclophilin B (from UniProt P23284 34-216)
	binds	Signal Transducer and Activator of Transcription 3 (from UniProt P40763 1-770)
binds		Suppressors Of Cytokine Signalling 3 (from UniProt O14543 1-225)
	binds	phosphorylated STAT3 (Tyr705) (from UniProt P40763 1-770)
